Test results as given in patent publication US7491489B2 (priority 2004, dated 2009).
Entries after “also recorded” stand apart in the source; their conditions may differ. At least one peptide structure holds a part that was inferred or is arguable (an end, a ring closure or a residue). Some entries share one result that the patent states for a list of compounds.

Tests used:
[1] = tested on: SARS-CoV GZ50 strain
[2] = tested on: SARS-CoV; type: cell-based
[3] = tested on: SARS-CoV GZ50 strain; type: cell-based

SMILES: CC[C@H](C)[C@H](NC(=O)[C@H](C)NC(=O)[C@@H](NC(=O)[C@H](CO)NC(=O)[C@@H](NC(=O)[C@H](CC(=O)O)NC(=O)[C@@H](NC(=O)[C@H](CS)NC(=O)[C@H](CC(N)=O)NC(=O)[C@@H](NC(=O)[C@H](CC(=O)O)NC(=O)[C@H](CCC(N)=O)NC(=O)[C@@H](N)Cc1ccc(O)cc1)C(C)C)[C@@H](C)O)C(C)C)[C@@H](C)O)C(=O)N[C@@H](Cc1c[nH]cn1)C(=O)N[C@@H](C)C(=O)N[C@@H](CC(=O)O)C(=O)N[C@@H](CCC(N)=O)C(=O)N[C@@H](CC(C)C)C(=O)N[C@H](C(=O)N1CCC[C@H]1C(=O)O)[C@@H](C)O [P6]
- Released viral titer reduction [1]: over 5 fold

SMILES: CC[C@H](C)[C@H](NC(=O)[C@@H](NC(=O)CNC(=O)[C@H](CC(N)=O)NC(=O)[C@H](CCC(=O)O)NC(=O)[C@H](CC(=O)O)NC(=O)[C@H](Cc1ccc(O)cc1)NC(=O)[C@H](CCCCN)NC(=O)[C@H](CC(C)C)NC(=O)[C@H](CCSC)NC(=O)[C@H](Cc1ccccc1)NC(=O)[C@@H](NC(=O)[C@@H](NC(=O)[C@@H]1CCCN1)[C@@H](C)O)[C@@H](C)O)[C@@H](C)O)C(=O)N[C@H](C(=O)N[C@@H](CC(=O)O)C(=O)N[C@@H](C)C(=O)N[C@H](C(=O)N[C@@H](CC(=O)O)C(=O)N[C@@H](CS)C(=O)O)C(C)C)[C@@H](C)O [P2]
- Released viral titer reduction [1]: over 5 fold

SMILES: CC[C@H](C)[C@H](NC(=O)CNC(=O)[C@H](CO)NC(=O)[C@H](CC(C)C)NC(=O)[C@H](C)NC(=O)[C@H](CCCNC(=N)N)NC(=O)[C@H](CC(N)=O)NC(=O)[C@H](CC(C)C)NC(=O)[C@H](CCC(N)=O)NC(=O)[C@@H](NC(=O)[C@H](CS)NC(=O)[C@H](Cc1ccccc1)NC(=O)[C@H](CO)NC(=O)CNC(=O)[C@H](Cc1ccc(O)cc1)NC(=O)[C@@H](N)CCC(N)=O)[C@@H](C)O)C(=O)N[C@@H](C)C(=O)N[C@@H](C)C(=O)N[C@@H](CCC(=O)O)C(=O)N[C@@H](CCC(N)=O)C(=O)O [P8]
- Virus visible in the cells by electron microscopy [2]: absence of virus visible; also recorded: no virus was visible
- Intracellular viral RNA levels [3]: reduced
- IC90 lower than that of SEQ ID NO.:2 or SEQ ID NO.:6 [1]: over 4.5 fold
- IC90 lower than that of SEQ ID NO.:10 [1]: 3 fold
- Released viral titer relative to untreated control [1]: 2 % of the control
